Measurements reported in PubChem BioAssay AID1259405 (NCATS, 2018)

- Test: 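Silenced genes that increase secreted GFP made by CHO cells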 (primary screen)
- System: Chinese hamster CHO-K1 ovary cells with stable secreted eGFP expression
- Reagents: single siRNA against mouse genes, 0.8 pmol siRNA per well (2 µl of 400 nM stock)
- Time to read-out: 3 days
- Measurement: 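Per-well intracellular GFP measured by laser scanning cytometry, plus viability from ATP luminescence, each relative to plate median of non-targeting control wells, in %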
- Scale: GFP, % of control: higher = more GFP per well, higher productivity; viability (ATP), % of control: higher = more viable cells (more ATP)
- Active means: 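Called active when intracellular GFP, relative to negative control, is at or above 120%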
Here is one part, drawn at random, of about 50,000 deposited reagents. Over the whole deposit, about 4,000 (8%) got an active call. 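Mouse siRNA library applied to hamster cells; one well for each siRNA.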 A number with no mark means an inactive call. Reagents against one gene are numbered here.

Gene,siRNA no.,"GFP, % of control","viability (ATP), % of control"
H1f6,1,50.8,44.2
H1f6,2,97,113
H1f6,3,55.6,51.5
Trim68,1,59.1,55.7
Trim68,2,99.5,83.7
Trim68,3,98.6,81.2
Nuf2,1,61.6,81.1
Nuf2,2,58.5,73.3
Nuf2,3,86.2,102
Rpl19,1,47.8,49.4
Rpl19,2,77.4,49.3
Rpl19,3,38.8,22.1
Krt27,1,55.1,45.5
Krt27,2,52.5,58.9
Krt27,3,91.5,75.3
Dpp6,1,90.8,109
Dpp6,2,40.1,45.9
Dpp6,3,97.5,97.3
Dpp6,4,70.1,82.3
Dpp6,5,74.5,53
Dpp6,6,82.1,81.3
Elf5,1,43.3,58
Elf5,2,58.1,72
Elf5,3,71.2,57.8
Ntsr2,1,29.7,57.2
Ntsr2,2,77.1,74.6
Ntsr2,3,175 (active),89.8
Smad2,1,84.5,58.3
Smad2,2,65.8,61.3
Smad2,3,79.7,61
A130010J15Rik,1,61.9,60.2
A130010J15Rik,2,64.5,64.7
A130010J15Rik,3,80.8,95
Ptpn13,1,94.8,83.8
Ptpn13,2,65.5,64.7
Ptpn13,3,85.8,78.1

Records above whose target name begins with D or d:
Gene,siRNA no.,"GFP, % of control","viability (ATP), % of control"
Dpp6,1,90.8,109
Dpp6,2,40.1,45.9
Dpp6,3,97.5,97.3
Dpp6,4,70.1,82.3
Dpp6,5,74.5,53
Dpp6,6,82.1,81.3
